PubChem BioAssay AID1224830 | NIAID, 2016

Purpose: 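Genes whose knock-down alters the TNF-alpha reporter response to LPS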 (primary screen)
Cell system: human THP-1 monocytic leukaemia cells, TNF dual-luciferase reporter clone, PMA-differentiated to macrophage-like cells
Reagent: siRNA pool against human genes, 50 nM
Timing: LPS for 4 h, given about 3 days after siRNA transfection
Treatment: bacterial LPS (TLR4 ligand), 10 ng/ml
Measurement: 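TNF firefly reporter luminescence divided by renilla, normalised to the plate median, then turned into a robust z-score for each replicate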
Reading the numbers: TNF reporter robust z-score: higher = stronger TNF reporter response to LPS
Rule for the call: 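a well is active when its z-score exceeds 2.8 or falls below -1.5; control wells carry no call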
Here is an unselected part of about 18,000 deposited reagents. About 2,900 of all reagents (16%) were called active. 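Calls are made per well; low scores hint the gene aids the LPS response, high scores that it dampens it.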 Repeated entries: four replicate wells of each siRNA pool. Reagent sequences are not shown.

| gene symbol | PubChem SID | TNF reporter robust z-score | activity call |
| --- | --- | --- | --- |
| ZNF709 (zinc finger protein 709) | SID315462770 | -0.46 | inactive |
| ZNF709 (zinc finger protein 709) | SID315462770 | -0.55 | inactive |
| ZNF709 (zinc finger protein 709) | SID315462770 | 1.14 | inactive |
| ZNF709 (zinc finger protein 709) | SID315462770 | 1.22 | inactive |
| SETD9 (SET domain containing 9) | SID315461942 | 0.54 | inactive |
| SETD9 (SET domain containing 9) | SID315461942 | -0.17 | inactive |
| SETD9 (SET domain containing 9) | SID315461942 | 0.62 | inactive |
| SETD9 (SET domain containing 9) | SID315461942 | 1.23 | inactive |
| TAGLN3 (transgelin 3) | SID315456151 | 1.72 | inactive |
| TAGLN3 (transgelin 3) | SID315456151 | 1.64 | inactive |
| TAGLN3 (transgelin 3) | SID315456151 | 1.71 | inactive |
| TAGLN3 (transgelin 3) | SID315456151 | 0.07 | inactive |
| PDE3B (phosphodiesterase 3B) | SID315450473 | -0.92 | inactive |
| PDE3B (phosphodiesterase 3B) | SID315450473 | -1.31 | inactive |
| PDE3B (phosphodiesterase 3B) | SID315450473 | -1.07 | inactive |
| PDE3B (phosphodiesterase 3B) | SID315450473 | -0.49 | inactive |
| SLC38A7 | SID315457524 | 0.79 | inactive |
| SLC38A7 | SID315457524 | 1.46 | inactive |
| SLC38A7 | SID315457524 | 1.14 | inactive |
| SLC38A7 | SID315457524 | 0.97 | inactive |
| RPL7L1 (ribosomal protein L7 like 1) | SID315463882 | -1.8 | active |
| RPL7L1 (ribosomal protein L7 like 1) | SID315463882 | -1.22 | inactive |
| RPL7L1 (ribosomal protein L7 like 1) | SID315463882 | -2.15 | active |
| RPL7L1 (ribosomal protein L7 like 1) | SID315463882 | -1.31 | inactive |
| MRPL24 (mitochondrial ribosomal protein L24) | SID315459311 | 0.07 | inactive |
| MRPL24 (mitochondrial ribosomal protein L24) | SID315459311 | 0.57 | inactive |
| MRPL24 (mitochondrial ribosomal protein L24) | SID315459311 | -0.44 | inactive |
| MRPL24 (mitochondrial ribosomal protein L24) | SID315459311 | -0.03 | inactive |
| VPS37D (VPS37D subunit of ESCRT-I) | SID315462614 | -0.25 | inactive |
| VPS37D (VPS37D subunit of ESCRT-I) | SID315462614 | 1.88 | inactive |
| VPS37D (VPS37D subunit of ESCRT-I) | SID315462614 | -0.78 | inactive |
| VPS37D (VPS37D subunit of ESCRT-I) | SID315462614 | 0.26 | inactive |
| AIPL1 (AIP like 1 HSP90 co-chaperone) | SID315455418 | -1.31 | inactive |
| AIPL1 (AIP like 1 HSP90 co-chaperone) | SID315455418 | 0.34 | inactive |
| AIPL1 (AIP like 1 HSP90 co-chaperone) | SID315455418 | -0.46 | inactive |
| AIPL1 (AIP like 1 HSP90 co-chaperone) | SID315455418 | 1.22 | inactive |
| PTCHD4 (patched domain containing 4) | SID315464968 | -1.42 | inactive |
| PTCHD4 (patched domain containing 4) | SID315464968 | -0.78 | inactive |
| PTCHD4 (patched domain containing 4) | SID315464968 | -0.39 | inactive |
| PTCHD4 (patched domain containing 4) | SID315464968 | -0.81 | inactive |
| PFN4 (profilin family member 4) | SID315464357 | 1.96 | inactive |
| PFN4 (profilin family member 4) | SID315464357 | 2.54 | inactive |
| PFN4 (profilin family member 4) | SID315464357 | 1.1 | inactive |
| PFN4 (profilin family member 4) | SID315464357 | 2.63 | inactive |
| ABCA9 (ATP binding cassette subfamily A member 9) | SID315454025 | 0.87 | inactive |
| ABCA9 (ATP binding cassette subfamily A member 9) | SID315454025 | 0.92 | inactive |
| ABCA9 (ATP binding cassette subfamily A member 9) | SID315454025 | 0.22 | inactive |
| ABCA9 (ATP binding cassette subfamily A member 9) | SID315454025 | 1.31 | inactive |
| STMN3 (stathmin 3) | SID315456378 | 0.39 | inactive |
| STMN3 (stathmin 3) | SID315456378 | 0.92 | inactive |
| STMN3 (stathmin 3) | SID315456378 | 0.93 | inactive |
| STMN3 (stathmin 3) | SID315456378 | 1.51 | inactive |
| BACE1 (beta-secretase 1) | SID315455373 | -1.09 | inactive |
| BACE1 (beta-secretase 1) | SID315455373 | -0.39 | inactive |
| BACE1 (beta-secretase 1) | SID315455373 | -0.96 | inactive |
| BACE1 (beta-secretase 1) | SID315455373 | -1.16 | inactive |
| KRTAP6-2 (keratin associated protein 6-2) | SID315463960 | -0.79 | inactive |
| KRTAP6-2 (keratin associated protein 6-2) | SID315463960 | -0.37 | inactive |
| KRTAP6-2 (keratin associated protein 6-2) | SID315463960 | -0.86 | inactive |
| KRTAP6-2 (keratin associated protein 6-2) | SID315463960 | -0.51 | inactive |

6 entries already listed, arranged by “TNF reporter robust z-score”, highest first:
| gene symbol | PubChem SID | TNF reporter robust z-score | activity call |
| --- | --- | --- | --- |
| PFN4 (profilin family member 4) | SID315464357 | 1.96 | inactive |
| AIPL1 (AIP like 1 HSP90 co-chaperone) | SID315455418 | 1.22 | inactive |
| PTCHD4 (patched domain containing 4) | SID315464968 | -0.39 | inactive |
| PTCHD4 (patched domain containing 4) | SID315464968 | -0.78 | inactive |
| PTCHD4 (patched domain containing 4) | SID315464968 | -0.81 | inactive |
| PTCHD4 (patched domain containing 4) | SID315464968 | -1.42 | inactive |

The listing continues.
| gene symbol | PubChem SID | TNF reporter robust z-score | activity call |
| --- | --- | --- | --- |
| MMP10 (matrix metallopeptidase 10) | SID315450004 | 0.46 | inactive |
| MMP10 (matrix metallopeptidase 10) | SID315450004 | 0.56 | inactive |
| MMP10 (matrix metallopeptidase 10) | SID315450004 | -0.99 | inactive |
| MMP10 (matrix metallopeptidase 10) | SID315450004 | -0.32 | inactive |
| MMP2 (matrix metallopeptidase 2) | SID315449999 | 1.02 | inactive |
| MMP2 (matrix metallopeptidase 2) | SID315449999 | 0.01 | inactive |
| MMP2 (matrix metallopeptidase 2) | SID315449999 | 1.84 | inactive |
| LHPP | SID315458808 | -0.39 | inactive |
| LHPP | SID315458808 | 1.05 | inactive |
| LHPP | SID315458808 | 1.54 | inactive |
| LHPP | SID315458808 | 0.39 | inactive |
| PPP1R42 (protein phosphatase 1 regulatory subunit 42) | SID315463902 | 0.29 | inactive |
| PPP1R42 (protein phosphatase 1 regulatory subunit 42) | SID315463902 | -0.19 | inactive |
| PPP1R42 (protein phosphatase 1 regulatory subunit 42) | SID315463902 | 0.55 | inactive |
| PPP1R42 (protein phosphatase 1 regulatory subunit 42) | SID315463902 | 1.23 | inactive |
| SLC25A22 | SID315459435 | 1.59 | inactive |
| SLC25A22 | SID315459435 | 2.71 | inactive |
| SLC25A22 | SID315459435 | 1.43 | inactive |
| SLC25A22 | SID315459435 | 1.27 | inactive |
| LDHA (lactate dehydrogenase A) | SID315449745 | 1.06 | inactive |
| LDHA (lactate dehydrogenase A) | SID315449745 | 1.69 | inactive |
| LDHA (lactate dehydrogenase A) | SID315449745 | 0.01 | inactive |
| LDHA (lactate dehydrogenase A) | SID315449745 | 0.78 | inactive |
| ABHD6 (abhydrolase domain containing 6, acylglycerol lipase) | SID315458370 | 0.92 | inactive |
| ABHD6 (abhydrolase domain containing 6, acylglycerol lipase) | SID315458370 | -0.06 | inactive |
| ABHD6 (abhydrolase domain containing 6, acylglycerol lipase) | SID315458370 | 0.2 | inactive |
| ABHD6 (abhydrolase domain containing 6, acylglycerol lipase) | SID315458370 | 1.7 | inactive |
| FNBP1L (formin binding protein 1 like) | SID315457227 | 1.97 | inactive |
| FNBP1L (formin binding protein 1 like) | SID315457227 | 3.88 | active |
| FNBP1L (formin binding protein 1 like) | SID315457227 | 2.8 | active |
| FNBP1L (formin binding protein 1 like) | SID315457227 | 2.64 | inactive |
| ZNF548 (zinc finger protein 548) | SID315462333 | -1.03 | inactive |
| ZNF548 (zinc finger protein 548) | SID315462333 | -0.27 | inactive |
| ZNF548 (zinc finger protein 548) | SID315462333 | -0.55 | inactive |
| ZNF548 (zinc finger protein 548) | SID315462333 | -0.68 | inactive |
| SLC7A10 | SID315458070 | 0.78 | inactive |
| SLC7A10 | SID315458070 | 1.17 | inactive |
| SLC7A10 | SID315458070 | 0.35 | inactive |
| TGFBR3 (transforming growth factor beta receptor 3) | SID315451856 | -0.16 | inactive |
| TGFBR3 (transforming growth factor beta receptor 3) | SID315451856 | -0.03 | inactive |
| TGFBR3 (transforming growth factor beta receptor 3) | SID315451856 | -0.92 | inactive |
| TGFBR3 (transforming growth factor beta receptor 3) | SID315451856 | 1.12 | inactive |
| OR13C2 (olfactory receptor family 13 subfamily C member 2) | SID315464697 | 0.57 | inactive |
| OR13C2 (olfactory receptor family 13 subfamily C member 2) | SID315464697 | 1.08 | inactive |
| OR13C2 (olfactory receptor family 13 subfamily C member 2) | SID315464697 | 1.4 | inactive |
| OR13C2 (olfactory receptor family 13 subfamily C member 2) | SID315464697 | 1.64 | inactive |
| GRB14 (growth factor receptor bound protein 14) | SID315449033 | -0.13 | inactive |
| GRB14 (growth factor receptor bound protein 14) | SID315449033 | -0.45 | inactive |
| GRB14 (growth factor receptor bound protein 14) | SID315449033 | 0.34 | inactive |
| FBXO4 (F-box protein 4) | SID315455752 | -1.81 | active |
| FBXO4 (F-box protein 4) | SID315455752 | 1.18 | inactive |
| FBXO4 (F-box protein 4) | SID315455752 | 0.95 | inactive |
| FBXO4 (F-box protein 4) | SID315455752 | 0.07 | inactive |
